Laboratory results taken from PubChem BioAssay (EPA / NIEHS).
Where “and” joins values, the source holds several entries; their conditions need not be identical. Equal values may be shown once. The shares of active, inactive and inconclusive entries below differ from those in the screen. Where the call is inconclusive, the potency comes from a doubtful curve fit. Calls of active or inactive are those of the source. How the source made its calls: active means hit-call score of the fitted dose curve at least 0.9, where 1 is the maximum; inconclusive means response in the unintended direction; inactive means score below 0.9.

assay: CCTE_Shafer_MEA_dev_active_electrodes_number: CCTE's Neural Network Formation Assay for Number of Active Electrodes, Shafer Lab (AID 2284040);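 on AC50: potency for loss of active electrodes versus DMSO so lower counts are hits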
Method: CCTE_Shafer_MEA_dev assay is conducted using Axion Biosystems 48 well microelectrode array (MEA) plates and Maestro recording system. Each well of the MEA plate contains a grid of 16 microelectrodes embedded in the culture surface. Electrically active cells, such as neurons, can be cultured over the electrodes, and electrical activity in these cells can be recorded extracellularly. The spontaneous firing of neurons is captured from each electrode on a microsecond timescale providing both temporally and spatially precise data. […] The CCTE_Shafer_MEA_dev assay uses primary cultures of rat cortical neurons. Recordings are made on days post-plating 5, 7, 9 and 12. As these cultures mature over time, neural networks develop functional activity and form cohesive networks in which electrical activity can be highly coordinated. CCTE_Shafer_MEA_dev_active_electrodes_number is 1 of 19 assay components of the CCTE_Shafer_MEA_dev assay. It measures the number of electrodes in a well with a mean firing rate of at least 5 spikes (action potential firings) per minute during a recording in a microelectrode array (MEA) using Axion Biosystems Maestro 768 channel amplifier with the AxIS adaptive spike detector. To collapse across multiple recordings made on days post-plating 5, 7, 9 and 12, the trapezoidal area-under-the-curve of the component is calculated.Data from the assay component CCTE_Shafer_MEA_dev_active_electrodes_number was analyzed into 1 assay endpoint. This assay endpoint, CCTE_Shafer_MEA_dev_active_electrodes_number, was analyzed in the negative analysis fitting direction relative to DMSO as the negative control and baseline of activity. Using a type of functional reporter, gain or loss-of-signal activity can be used to understand electrical activity.
On the day prior to culture, each well was coated thoroughly with 150 uL of 0.05% polyethyleneimine (PEI, Sigma Cat P3143) in 50 mM HEPES (Sigma Cat H7523) at a pH of 8. The plate was incubated at 37C for one hour. PEI was rinsed out with 500 uL of sterile water three times. Plates were stored at 4C until the day of culture. This culture was plated at a seeding density of 1.5 x 10^5 cells/well on a 48-well MEA plate, prepared as described above. Cells were administered via a 25 uL media/laminin ([…]; Sigma Cat L2020-1MG) drop directly onto the microelectrode array, as adding the cells with the laminin results in better attachment than pre-coating with laminin. After 2 hours, an additional 475 uL of cortical media was added and the cells returned to the incubator. Exposure starts at day 0 of plating and is continued over twelve days of network development until the experiment is terminated. Cells are fed with fresh medium on DIV 5 and 9, following the recordings on those days. The entire volume of media in the well is exchanged and any vehicle or compound treatment is renewed. Complete details are found in OP-NHEERL/ISTD/SBB/TJS/2015-03-r0 (available on request, email shafer.tim@epa.gov). Measurement of the electrical activity is non-invasive, and recordings can be made from the same plate over multiple different days of the culture. In cortical neurons, this allows for the measurement of extracellular action potentials over the period during which networks form in the MEA plate.

AC50, active:
OCC(F)(F)C(F)(F)C(F)(F)C(F)(F)C(F)(F)C(F)(F)C(F)(F)C(F)(F)CO 15 µM

AC50, inconclusive:
FC(F)=C(F)C(F)(F)C(F)(F)C(F)(F)C(F)F 27.6 µM
N[C@H]1C(O)O[C@H](CO)[C@H](O)[C@@H]1O (some centres not stated) 0.0975 µM
FC(F)=C(F)OC(F)(F)C(F)(F)C(F)(F)F 15 µM
Oc1ccccc1 15 µM
COC(=O)C(F)(F)C(F)(F)C(F)(F)C(F)(F)C(F)(F)F 15 µM
O=C(C=C(O)C(F)(F)F)C(F)(F)F 3.74 µM
OC[C@@H](O)[C@@H](O)[C@H](O)[C@@H](O)CO 10.1 µM and 40.5 nM
COC(=O)CCC(F)(F)C(F)(F)C(F)(F)C(F)(F)F 15 µM
NC(=O)C(F)(F)C(F)(F)C(F)(F)C(F)(F)C(N)=O 0.351 µM
CO[Si](C)(CCC(F)(F)C(F)(F)C(F)(F)C(F)(F)C(F)(F)C(F)(F)F)OC 5 µM
NC(=O)C(F)(F)C(F)(F)C(F)(F)C(F)F 15 µM
OC(O)C(F)(F)C(F)(F)F 15 µM
Cc1ccc(S(=O)(=O)OCC(F)(F)C(F)(F)C(F)(F)C(F)(F)C(F)(F)C(F)F)cc1 0.003 µM
O=C(O)C(F)(F)C(F)(F)C(F)(F)OC(F)(F)F 15 µM
NC(=O)C(F)(F)C(F)(F)C(F)(F)F 15 µM

outcome, inactive:
Nc1nc2ncc(CNc3ccc(C(=O)N[C@@H](CCC(=O)O)C(=O)O)cc3)nc2c(=O)[nH]1
NC(C(F)(F)F)C(F)(F)F
O=C(F)C(F)(F)C(F)(F)C(F)(F)C(F)F
FC(F)(F)C(F)(F)C(F)(F)C(F)(F)C(F)(F)C(F)(F)C(F)(F)CCI
O=P(O)(O)OCCC(F)(F)C(F)(F)C(F)(F)C(F)(F)C(F)(F)C(F)(F)F
N=C(N)C(F)(F)C(F)(F)C(F)(F)C(F)(F)C(F)(F)C(F)(F)C(F)(F)F

Copied from the results shown, two compounds:
outcome, inactive:
O=P(O)(O)OCCC(F)(F)C(F)(F)C(F)(F)C(F)(F)C(F)(F)C(F)(F)F
N=C(N)C(F)(F)C(F)(F)C(F)(F)C(F)(F)C(F)(F)C(F)(F)C(F)(F)F
